# Results: patent US5795861A, “Methods for regulating gastrointestinal motility” (Amylin Pharmaceuticals Inc., priority 1995, dated 1998)
# Not every detail of the peptide structures is certain; ends, links or a residue may be inferred.
# Legend:
# treated test animals = test: amylin activity in vivo (hyperlactemia, hyperglycemia)
# [1] = test system: subjects with insulin-dependent diabetes mellitus; test: Sustacal meal or IV glucose load during continuous AC-0137 infusion (cross-over study); format: in vivo, human
# [2] = test system: subjects with insulin-dependent diabetes mellitus; test: 14-day study, Sustacal standardized meal tolerance test; format: in vivo, human; conditions: 14 days, AUC 0-3 hours relative to premeal
# [3] = test system: subjects with insulin-dependent diabetes mellitus; test: post-prandial plasma glucose after IV bolus or 2-hour IV infusion of AC-0137 (clinical study); format: in vivo, human
# [4] = test system: insulin-stimulated glycogen synthesis in soleus muscle; test: soleus muscle assay; format: cell-based, rat
compound,measurement,setting,value
"CC[C@H](C)[C@H](NC(=O)[C@@H]1CCCN1C(=O)CNC(=O)[C@H](Cc1ccccc1)NC(=O)[C@H](CC(N)=O)NC(=O)[C@H](CC(N)=O)NC(=O)[C@H](CO)NC(=O)[C@H](CO)NC(=O)[C@H](Cc1c[nH]cn1)NC(=O)[C@@H](NC(=O)[C@H](CC(C)C)NC(=O)[C@H](Cc1ccccc1)NC(=O)[C@H](CC(N)=O)NC(=O)[C@H](C)NC(=O)[C@H](CC(C)C)NC(=O)[C@H](CCCNC(=N)N)NC(=O)[C@H](CCC(N)=O)NC(=O)[C@@H](NC(=O)[C@H](C)NC(=O)[C@@H]1CSSC[C@H](NC(=O)[C@@H](N)CCCCN)C(=O)N[C@@H](CC(N)=O)C(=O)N[C@@H]([C@@H](C)O)C(=O)N[C@@H](C)C(=O)N[C@@H]([C@@H](C)O)C(=O)N1)[C@@H](C)O)C(C)C)C(=O)N[C@@H](CC(C)C)C(=O)N1CCC[C@H]1C(=O)N1CCC[C@H]1C(=O)N[C@H](C(=O)N[C@@H](CC(N)=O)C(=O)N[C@H](C(=O)NCC(=O)N[C@@H](CO)C(=O)N[C@@H](CC(N)=O)C(=O)N[C@H](C(=O)N[C@@H](Cc1ccc(O)cc1)C(N)=O)[C@@H](C)O)C(C)C)[C@@H](C)O [AC-0137, ^25,28,29 Pro-h-amylin]",amylin activity in vivo,treated test animals,marked hyperlactemia followed by hyperglycemia
same,plasma glucose levels after Sustacal meal vs placebo,"[1]; 25 μg/hr or 50 μg/hr IV infusion, Sustacal meal",reduced
same,plasma glucose levels after IV glucose load vs placebo,"[1]; 50 μg/hr IV infusion, IV glucose load 300 mg/kg",not significantly different from placebo-treated subjects
same,Post-meal glucose: Mean of changes in AUC,[2]; 30 micrograms 3 times daily s.c.,"-6,645 mg/dl*min."
same,Post-meal glucose: Mean of changes in AUC,[2]; 100 micrograms 3 times daily s.c.,"-6,412 mg/dl*min."
same,Post-meal glucose: Mean of changes in AUC,[2]; 300 micrograms 3 times daily s.c.,"-7,316 mg/dl*min."
same,reduction in post-prandial hyperglycemia,[3]; 2-hour IV infusion 15 μg/hr,highly suggestive of an effect
same,reduction of the post-prandial rise in glucose levels,[3]; 2-hour IV infusion 50 and 150 μg/hr,striking
same,post-prandial glucose levels,[3]; IV bolus 30 μg,no apparent change in glucose levels
same,post-prandial rise in glucose,[3]; IV bolus 100 μg,clearly delayed and less pronounced
same,post-prandial rise in glucose levels,[3]; IV bolus 300 μg,essentially eliminated
same,amylin agonist activity,[4],act as amylin agonists
same,antagonist activity in the soleus muscle assay,[4],negligible antagonist activity
